Source: publication PMC12040169 (PLOS Biology, 2025)
Some of the results follow.

Test system: T1, CTL2-GFP (C. trachomatis L2/434/Bu, GFP-expressing)
T1 construct: L2/434/Bu, GFP-expressing
Design: species or system HeLa; Intracellular C. trachomatis growth in HeLa cells, bulk GFP fluorescence relative to DMSO
Details: bulk GFP, single well; 28.5 h, 10 µM; inhibitor

Row | SMILES | % of control remaining
1 | CN(C)Cc1nc(C(=O)N2CCn3nc(C(O)C4CC4)cc3C2)cs1 (stereo not shown) [CBK307489] | 124.03%
2 | Cc1ccc(C2(C(=O)NC(C)c3ccccn3)CCOCC2)cc1 (stereo not shown) [CBK281903] | 82.3111%
3 | CCn1cc(C(=O)O)c(=O)c2cc(F)c(N3CCN(S(=O)(=O)c4ccc(C)cc4)CC3)cc21 [CBK265122] | 164.281%
4 | COc1cc(CNc2cc(-c3ccco3)ncn2)cc(OC)c1OC [CBK091181] | 140.16%
5 | O=C(O)c1cc(C=Cc2cn(Cc3ccccc3)nc2-c2cccnc2)nc2ccccc12 [CBK296988] | 124.048%
6 | COc1ccc(CNC(=O)CN2CCCCC2Cn2cccn2)cc1 (stereo not shown) [CBK305379] | 108.964%
7 | O=C(NCc1nnc(-c2cccs2)o1)C(c1ccccc1)c1ccccc1 [CBK286294] | 98.6804%
8 | COc1ccc(NC(=O)CSc2nc(O)cc(=O)[nH]2)cc1 [CBK261747] | 112.732%
9 | CN(C)CC(C)(C)CNC(=O)c1ccccc1-n1cccc1 [CBK149600] | 124.751%
10 | CSCCC(=O)NCc1c(-c2ccccc2)noc1C [CBK144092] | 104.1%
11 | CC(C(=O)Nc1ccc(S(N)(=O)=O)cc1)N1CCCc2ccccc21 (stereo not shown) [CBK306108] | 77.2524%
12 | CCOC(=O)NC(=O)c1cn(N2CCOCC2)c(=O)[nH]c1=O [CBK004845] | 109.124%
13 | CN(CCCc1cnn(C)c1)c1nc(N)nc2c1CCCC2 [CBK306766] | 69.9402%
14 | O=C(c1ccc(-c2cnc3[nH]c(=O)n(C4CCCCC4)c3n2)cc1)N1CCOCC1 [CBK064566] | 185.363%
15 | CCOc1ccc(S(=O)(=O)N2CCN(Cc3cc(C(=O)OC)n(C)c3)CC2)c2cccnc12 [CBK062796] | 93.041%
16 | Cc1nn(Cc2ccc(Cl)cc2)c(C)c1C(N)C(=O)O (stereo not shown) [CBK286661] | 132.008%
17 | O=C(NC1CC1)C1CCN(Cn2nnc3ccccc3c2=S)CC1 [CBK306342] | 94.7244%
18 | O=C(c1cc(O)nc2ccccc12)N1CCN(S(=O)(=O)N2CCCC2)CC1 [CBK297898] | 118.795%
19 | COc1ccc(CN(/N=N/c2nonc2C)c2nonc2C)cc1[N+](=O)[O-] [CBK262386] | 128.532%
20 | Cc1cc(C(=O)C(C)Oc2ccc(-c3nnco3)cc2)c(C)n1-c1ccccc1 (stereo not shown) [CBK297104] | 90.6868%
21 | CCCCC(=O)NCCc1ccc(S(N)(=O)=O)cc1 [CBK288360] | 107.147%
22 | Cn1cc(CNS(=O)(=O)c2ccc(Br)c(F)c2)cn1 [CBK305539] | 109.704%
23 | O=C(O)[C@H]1CN(C(=O)c2ccco2)C[C@@H]1c1ccccc1F [CBK283820] | 144.185%
24 | CCCCCNC(=O)NCCC1=CCCCC1 [CBK043796] | 112.782%
25 | O=S(=O)(Nc1cc(OC2CCCNC2)c2occc2c1)c1cc(F)ccc1F (stereo not shown) [CBK073996C] | 64.0932%
26 | CC(Cn1cc(Cl)cn1)C(=O)NC(C)C1CC2CCC1C2 (stereo not shown) [CBK281650] | 84.2868%
27 | COc1ccccc1-c1cnc(N)c(N[C@H](C)c2ccccc2)n1 [CBK063705] | 181.277%

Row | SMILES | % of control remaining
28 | O=C(O)CSCC(=O)N1CCN(c2ccc(F)cc2)CC1 [CBK057269] | 149.285%
29 | OC[C@H]1O[C@@H](n2cnc3c(Cl)ncnc32)C[C@H]1O [CBK201167] | 108.264%
30 | CCCC(=O)c1ccc(S(=O)(=O)N2CCCN(Cc3cc(Br)cs3)CC2)cc1 [CBK062896] | 90.4916%
31 | CC(O)CN(Cc1ccc(-c2ccccc2)cc1)Cc1ccc2c(c1)OCO2 (stereo not shown) [CBK286450] | 114.505%
32 | COc1cccc2sc(Nc3nc(-c4cccs4)cs3)nc12 [CBK287469] | 77.3664%
33 | O=C(CN(c1ccc(I)cc1)S(=O)(=O)c1ccccc1)NCC1CCCO1 (stereo not shown) [CBK266278] | 150.511%
34 | CCN(CCO)c1ccc(Nc2nc(-c3ccc(F)c(Cl)c3)cn3ccnc23)cc1 [CBK038042] | 157.747%
35 | O=C(c1ncoc1-c1ccc(F)cc1)N1CCSCC1 [CBK282380] | 145.137%
36 | COc1cc(S(=O)(=O)NC2CC(C)(C)NC(C)(C)C2)ccc1Br [CBK267908] | 127.126%
37 | O=C1N=C(NC23CC4CC(CC(C4)C2)C3)OC1c1ccccc1 (stereo not shown) [CBK105263] | 44.0291%
38 | CCCNC(C)C(=O)Nc1c(C)csc1C(=O)O (stereo not shown) [CBK287064] | 129.09%
39 | Cn1c(=O)c2c(nc(SCC(=O)O)n2C)n(C)c1=O [CBK262942] | 135.876%
40 | OCCCN1CCCN(c2ccnc(OCCN3CCOCC3)n2)CC1 [CBK083808] | 118.869%
41 | CC(C)NC(=O)N1CCN2C(=O)N(c3ccccc3)C(=O)[C@@H]2C1 [CBK289579] | 116.821%
42 | CSc1nsc(SCC(=O)c2ccc(NC(C)=O)cc2)n1 [CBK268755] | 131.275%
43 | Cc1c(CN(C)C(=O)c2cccc(NC(=O)C3CCCO3)c2)cnn1C (stereo not shown) [CBK305416] | 82.1694%
44 | C=CCOc1ccc(Cl)cc1CNc1cccc(C(=O)O)c1 [CBK078460] | 113.889%
45 | CC(C(=O)Nc1cccc(F)c1)N1CCN(Cc2cccnc2)CC1 (stereo not shown) [CBK305408] | 108.62%
46 | COc1cc(CN2CCN(C(=O)c3cccc(Cl)c3)CC2)cc(OC)c1OC [CBK074530] | 87.5358%
47 | C/C(=N\NC(=O)CN(c1ccc(C)cc1)S(=O)(=O)c1ccccc1)c1ccc(Cl)cc1 [CBK262229] | 123.581%
48 | O=c1[nH]c2ncc(-c3cccc(Br)c3)nc2n1CCc1cccnc1 [CBK064457] | 92.6084%
49 | COc1cccc(CN2CCCC(NC(=O)c3cnn(C(C)C)c3)C2)c1 (stereo not shown) [CBK307477] | 122.728%
50 | COc1cc(OC)c(NS(=O)(=O)c2cc(C(=O)O)ccc2C)cc1Cl [CBK296105] | 115.861%
51 | O=C(c1cnn(-c2cccc(Cl)c2)c1)N1CCOCC1CC(F)F (stereo not shown) [CBK304207] | 96.5012%
52 | Cc1ccccc1C(c1cnccn1)N(C)C(=O)C1CCN(S(=O)(=O)C(C)C)CC1 (stereo not shown) [CBK060242] | 113.45%
53 | CCc1nc2ccccc2n1C1CCN(C(=O)Cc2cccnc2)CC1 [CBK306389] | 114.148%
54 | COc1ccc(Cl)cc1NC(=S)NNC(=O)c1cccnc1 [CBK267161] | 129.06%

Row | SMILES | % of control remaining
55 | N#Cc1c(NC(=O)c2cccnc2)sc2c1CCCCC2 [CBK287584] | 106.112%
56 | Cc1cc2nnc(SC(C)c3nc(-c4ccccc4)no3)n2c(C)n1 (stereo not shown) [CBK298306] | 81.4219%
57 | O=C(O)C1CC(=O)N(CCc2c[nH]c3ccc(Cl)cc23)C1 (stereo not shown) [CBK287211] | 141.121%
58 | O=C(O)C1CCCCC1C(=O)NCCc1ccccc1 (stereo not shown) [CBK261707] | 121.51%
59 | CN(C)CC1CCCN(C(=O)c2cc3cc(F)ccc3n2C)C1 (stereo not shown) [CBK282122] | 143.997%
60 | CCc1nc2ccccc2n1CC(=O)O [CBK111477] | 150.4%
61 | COC(=O)Cn1c(CN2CCN(c3cccc(Cl)c3)CC2)nc2c1c(=O)n(C)c(=O)n2C [CBK269598] | 129.514%
62 | COc1ccc(C(=O)NCCc2nc3ccccc3[nH]2)cc1 [CBK261040] | 93.4151%
63 | O=C(NCCOc1ccccc1)N1CCN(c2ccccc2)CC1 [CBK155198] | 157.974%
64 | CN1CCN(C(=O)CN(C)S(=O)(=O)c2ccc3ccccc3c2)CC1 [CBK267053] | 108.996%
65 | FC(F)(F)c1ccc(Oc2ccc(-c3noc(-c4ccccn4)n3)cc2)nc1 [CBK270152] | 134.658%
66 | O=C1CCC(=O)N1CCOc1nccnc1N1CCN(CC2CC2)CC1 [CBK084305] | 114.078%
67 | Cc1ccccc1C1(O)CCN(C(=O)C(c2cccs2)c2cccs2)CC1 [CBK286483] | 108.505%
68 | CC(=O)Nc1cccc(NC(=O)N(CCC#N)C2CCCCC2)c1 [CBK156367] | 115.539%
69 | O=C(O)c1cccc(NC(=O)c2ccc(S(=O)(=O)N3CCCCC3)cc2)c1 [CBK265185] | 124.567%
70 | O=C(NCCc1c[nH]c2ccccc12)NC(=O)C1CCNCC1 [CBK051094] | 111.579%
71 | O=C(COc1ccc(Cl)cc1Cl)Nc1ccc2cc[nH]c2c1 [CBK160023] | 109.569%
72 | O=C(Nc1ccc(F)cc1)N[C@H]1[C@H](O)[C@@H](N2CCCCC2)[C@@H]2OC[C@H]1O2 [CBK288826] | 135.886%
73 | COc1ccccc1NC(=O)c1c(NC(=O)c2cccs2)sc2c1CCC(C(C)(C)C)C2 (stereo not shown) [CBK264123] | 112.231%
74 | Cc1nn(CCC#N)c(C)c1[C@@H]1C=C[C@@H](NS(=O)(=O)c2ccccc2)C1 [CBK288805] | 112.58%
75 | COc1ccc(C(=O)Nc2ccc(C(C)=O)cc2)cc1[N+](=O)[O-] [CBK262457] | 100%
76 | COc1cccc(C(=O)/C=C\Nc2ccc(S(=O)(=O)Nc3onc(C)c3C)cc2)c1 [CBK264206] | 13.6439%
77 | Cc1ccccc1-c1nnc(SC(C)C)n1CCNCCO [CBK200084T] | 147.947%
78 | O=S(=O)(N1CCCCCC1)N1CCN(S(=O)(=O)N2CCOCC2)CC1 [CBK269152] | 145.9%
79 | Cc1cc(N2CCCC(N(C)S(=O)(=O)c3cccc(F)c3)CC2)nc(C)n1 (stereo not shown) [CBK285935] | 105.425%

Individual results from the list.
O=C1CCC(=O)N1CCOc1nccnc1N1CCN(CC2CC2)CC1 [CBK084305] | % of control remaining: 114.078%
CCOc1ccc(S(=O)(=O)N2CCN(Cc3cc(C(=O)OC)n(C)c3)CC2)c2cccnc12 [CBK062796] | % of control remaining: 93.041%
CC(Cn1cc(Cl)cn1)C(=O)NC(C)C1CC2CCC1C2 (stereo not shown) [CBK281650] | % of control remaining: 84.2868%
Cc1ccccc1C1(O)CCN(C(=O)C(c2cccs2)c2cccs2)CC1 [CBK286483] | % of control remaining: 108.505%
COC(=O)Cn1c(CN2CCN(c3cccc(Cl)c3)CC2)nc2c1c(=O)n(C)c(=O)n2C [CBK269598] | % of control remaining: 129.514%
